Reference: paper PMC10451648 (Antibiotics, 2023)

assay: general procedure: Fmoc solid-phase peptide synthesis; Rink Amide Pro Tide Resin (LL) (CEM), loading 0.2 mmol/g; DIC / Oxyma Pure; conditions: whole synthesis, analytical HPLC, InertSustainSwift C18, 0.1% TFA water/MeCN, 10-90% B over 30 min, scale of the general procedure 250 mg resin (loading: 0.2 mmol/g)

Substance | final HPLC purity [%]
PEPTIDE1{G.I.K.K.F.L.K.S.[Aib].K.K.F.V.K.[Aib].F.K.[am]}$$$$V2.0 | 99.9
PEPTIDE1{G.I.K.K.F.L.K.S.[XAibh1ed408].K.K.F.V.K.[XAibh1ed408].F.[XApih6328a3].[am]}$$$$V2.0 | 99.3
PEPTIDE1{G.I.K.K.F.L.K.S.[XAibh1ed408].K.K.F.V.[XApih6328a3].[XAibh1ed408].F.K.[am]}$$$$V2.0 | 98.7
PEPTIDE1{G.I.K.K.F.L.K.S.[XAibh1ed408].K.[XApih6328a3].F.V.K.[XAibh1ed408].F.K.[am]}$$$$V2.0 | 98.9
PEPTIDE1{G.I.K.K.F.L.K.S.[XAibh1ed408].[XApih6328a3].K.F.V.K.[XAibh1ed408].F.K.[am]}$$$$V2.0 | 98.3
PEPTIDE1{G.I.K.K.F.L.[XApih6328a3].S.[XAibh1ed408].K.K.F.V.K.[XAibh1ed408].F.K.[am]}$$$$V2.0 | 99.6
PEPTIDE1{G.I.K.[XApih6328a3].F.L.K.S.[XAibh1ed408].K.K.F.V.K.[XAibh1ed408].F.K.[am]}$$$$V2.0 | 99.6
PEPTIDE1{G.I.[XApih6328a3].K.F.L.K.S.[XAibh1ed408].K.K.F.V.K.[XAibh1ed408].F.K.[am]}$$$$V2.0 | 97.8

Strings that start with PEPTIDE1 are HELM notation: dots part the residues, brackets hold end groups and non-standard residues.
